Source: patent US6780418B1, “Reagents and immunoassay for the detection and quantitative determination of mycothiol and precursors thereof” (The Regents of the University of California, priority 1997, dated 2004)
Some of these results come from one statement about several compounds together.

Chains of the proteins cited; added tags and fusions are not shown. Lines headed by an entry give the natural chain unless they say otherwise; changes in a name come on top.
UniProt A0QZY0: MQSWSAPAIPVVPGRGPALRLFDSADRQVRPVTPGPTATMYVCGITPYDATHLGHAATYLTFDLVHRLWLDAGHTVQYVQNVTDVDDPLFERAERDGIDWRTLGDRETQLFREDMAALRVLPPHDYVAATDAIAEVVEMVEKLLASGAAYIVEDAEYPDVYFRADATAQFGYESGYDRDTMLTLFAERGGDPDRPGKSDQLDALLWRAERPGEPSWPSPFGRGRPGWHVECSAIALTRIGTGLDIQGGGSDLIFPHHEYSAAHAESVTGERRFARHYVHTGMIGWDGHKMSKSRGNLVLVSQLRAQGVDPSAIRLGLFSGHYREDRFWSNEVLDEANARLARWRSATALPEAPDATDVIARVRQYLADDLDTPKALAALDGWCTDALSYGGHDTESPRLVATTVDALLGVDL

Target: ATP-dependent ligase activity (Mycolicibacterium smegmatis, UniProt A0QZY0)
Experiment: Assay of ATP-dependent ligase activity with GlcN-Ins plus Cys/AcCys in cell extract supernatant
Format: biochemical, M. smegmatis
Conditions: 100 μM substrate, 50 μM GlcN-Ins, 1 mM ATP, pH 7.5, 0 min

Row | Structure (SMILES) | Cys-GlcN-Ins concentration
1 | CC(=O)N[C@@H](CS)C(=O)O [AcCys, N-acetyl-cysteine] | < 0.2 µM
2 | N[C@@H](CS)C(=O)O [Cys, L-cysteine] | < 0.2 µM
